Record: PubChem BioAssay AID743121 (NCATS, 2013)
The whole screen tested about 26,000 reagents; this is a part drawn at random. Over the whole deposit, 167 (0.63%) were called active. 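Calls are per gene from RSA p-values that are not deposited; an individual active-marked siRNA can sensitise only weakly.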 The numbers tell different reagents against one gene apart. Further read-outs or replicates are left out here.

Purpose: 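Genes whose silencing strengthens cell killing by camptothecin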 (primary screen)
System: MDA-MB-231 cells, a human breast cancer line
Knock-down reagent: single siRNA against human genes, 20 nM siRNA (0.8 pmol per well)
Duration: 120 h (drug added 48 h after transfection, read 72 h later)
Treatment: camptothecin 20 nM (about EC30) for 72 h; vehicle 0.1% DMSO in parallel plates
Detection: 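Cell viability by ATP luminescence (CellTiter-Glo) as % of non-targeting siRNA wells, and the log2 ratio of viability without drug over viability with camptothecin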
Reading the numbers: log2 vehicle/camptothecin viability: higher = stronger sensitisation to camptothecin; viability with camptothecin: higher = more viable cells
Hit rule: 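Active genes have an RSA gene-level p-value below 0.001, computed from the ratios of their separate siRNAs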

| target | reagent no. | log2 vehicle/camptothecin viability | viability with camptothecin (% of control) | activity call |
| --- | --- | --- | --- | --- |
| GRIN2A | 1 | -0.716 | 54 | inactive |
| GRIN2A | 2 | -0.0708 | 90.8 | inactive |
| GRIN2A | 3 | -0.0184 | 91.9 | inactive |
| GPRC5A | 1 | -0.0688 | 91.3 | inactive |
| GPRC5A | 2 | -0.52 | 109 | inactive |
| GPRC5A | 3 | -0.225 | 81.8 | inactive |
| GPRC5A | 4 | -0.307 | 85.4 | inactive |
| SCN2B | 1 | -0.252 | 107 | inactive |
| SCN2B | 2 | 0.114 | 31.9 | inactive |
| SCN2B | 3 | -0.295 | 105 | inactive |
| SCN2B | 4 | -0.0403 | 91.2 | inactive |
| NTF3 | 1 | -0.0218 | 84.3 | inactive |
| NTF3 | 2 | -0.425 | 105 | inactive |
| NTF3 | 3 | -0.238 | 98.6 | inactive |
| NTF3 | 4 | -0.199 | 60.7 | inactive |
| QSOX1 | 1 | -0.489 | 110 | inactive |
| QSOX1 | 2 | 0.158 | 40.8 | inactive |
| QSOX1 | 3 | -0.348 | 81.4 | inactive |
| QSOX1 | 4 | -0.363 | 49.9 | inactive |
| RAB5C | 1 | -0.231 | 81.5 | inactive |
| RAB5C | 2 | 0.078 | 45.6 | inactive |
| RAB5C | 3 | -0.392 | 107 | inactive |
| RAB5C | 4 | -0.458 | 40.5 | inactive |
| KLF10 | 1 | -0.35 | 67.5 | inactive |
| KLF10 | 2 | -0.404 | 74.4 | inactive |
| KLF10 | 3 | -0.556 | 70.5 | inactive |
| PGBD1 | 1 | -0.0094 | 51.6 | inactive |
| PGBD1 | 2 | -0.509 | 40.2 | inactive |
| PGBD1 | 3 | -0.481 | 33.1 | inactive |
| PGBD1 | 4 | 0.145 | 52.5 | inactive |
| CSNK1G1 | 1 | -0.207 | 70.7 | inactive |
| CSNK1G1 | 2 | -0.197 | 102 | inactive |
| CSNK1G1 | 3 | -0.0949 | 87.8 | inactive |
| CSNK1G1 | 4 | 0.275 | 52.9 | inactive |
| CETN3 | 1 | -0.203 | 109 | inactive |
| CETN3 | 2 | -0.0113 | 95.1 | inactive |
| CETN3 | 3 | -0.297 | 137 | inactive |
| CETN3 | 4 | 0.302 | 71 | inactive |
| ACRV1 | 1 | 0.638 | 53.8 | inactive |
| ACRV1 | 2 | -0.15 | 114 | inactive |
| ACRV1 | 3 | -0.0585 | 100 | inactive |
| ACRV1 | 4 | -0.296 | 71.4 | inactive |
| FCSK | 1 | -0.268 | 83.4 | inactive |
| FCSK | 2 | 0.147 | 64 | inactive |
| FCSK | 3 | -0.356 | 55.8 | inactive |
| FCSK | 4 | 0.0644 | 87.2 | inactive |
| SRD5A2 | 1 | 0.234 | 71 | inactive |
| SRD5A2 | 2 | -0.114 | 44.7 | inactive |
| SRD5A2 | 3 | 0.333 | 24.6 | inactive |
| MAFF | 1 | 1.25 | 7.57 | inactive |
| MAFF | 2 | -0.167 | 86.4 | inactive |
| MAFF | 3 | -0.0945 | 101 | inactive |
| APP | 1 | -0.406 | 89.2 | inactive |
| APP | 2 | -0.143 | 87.9 | inactive |
| APP | 3 | -0.537 | 87.6 | inactive |
| DES | 1 | -0.64 | 99.8 | inactive |
| DES | 2 | -0.578 | 86.6 | inactive |
| DES | 3 | -0.147 | 91.8 | inactive |
| DES | 4 | 0.167 | 31 | inactive |
| MRGPRF | 1 | -0.283 | 89.9 | inactive |
| MRGPRF | 2 | 0.104 | 58.8 | inactive |
| MRGPRF | 3 | -0.415 | 83.7 | inactive |
| MRGPRF | 4 | 0.262 | 32.3 | inactive |
| TIMD4 | 1 | -0.813 | 80.5 | inactive |
| TIMD4 | 2 | -0.472 | 77.9 | inactive |
| TIMD4 | 3 | -0.179 | 63.9 | inactive |
| TIMD4 | 4 | 0.159 | 67.3 | inactive |
| SIN3A | 1 | -0.118 | 55.3 | inactive |
| SIN3A | 2 | -0.0648 | 15.1 | inactive |
| SIN3A | 3 | 0.211 | 28.4 | inactive |
| SIN3A | 4 | -0.116 | 73.3 | inactive |

Single entries from the list:
RAB5C #4, activity call → inactive
CSNK1G1 #1, log2 vehicle/camptothecin viability: -0.207
Value of FCSK #4 in “log2 vehicle/camptothecin viability”: 0.0644
Value for QSOX1 #2 under “activity call”: inactive
Result of MAFF #3 in “activity call”: inactive
DES #1, activity call: inactive
